Results published in PMC8754431.
These are yes or no findings as the source states them, for the method shown. Binding seen in cells or lysates may run through a third protein. A yes stands for co-enrichment or nearness to the bait. Other partners may have been found. Values belong to the binder of their own block, whether it stands above or below them.

By UniProt entry, the sequences of proteins in these tests, tags left out.
UniProt E9PY46: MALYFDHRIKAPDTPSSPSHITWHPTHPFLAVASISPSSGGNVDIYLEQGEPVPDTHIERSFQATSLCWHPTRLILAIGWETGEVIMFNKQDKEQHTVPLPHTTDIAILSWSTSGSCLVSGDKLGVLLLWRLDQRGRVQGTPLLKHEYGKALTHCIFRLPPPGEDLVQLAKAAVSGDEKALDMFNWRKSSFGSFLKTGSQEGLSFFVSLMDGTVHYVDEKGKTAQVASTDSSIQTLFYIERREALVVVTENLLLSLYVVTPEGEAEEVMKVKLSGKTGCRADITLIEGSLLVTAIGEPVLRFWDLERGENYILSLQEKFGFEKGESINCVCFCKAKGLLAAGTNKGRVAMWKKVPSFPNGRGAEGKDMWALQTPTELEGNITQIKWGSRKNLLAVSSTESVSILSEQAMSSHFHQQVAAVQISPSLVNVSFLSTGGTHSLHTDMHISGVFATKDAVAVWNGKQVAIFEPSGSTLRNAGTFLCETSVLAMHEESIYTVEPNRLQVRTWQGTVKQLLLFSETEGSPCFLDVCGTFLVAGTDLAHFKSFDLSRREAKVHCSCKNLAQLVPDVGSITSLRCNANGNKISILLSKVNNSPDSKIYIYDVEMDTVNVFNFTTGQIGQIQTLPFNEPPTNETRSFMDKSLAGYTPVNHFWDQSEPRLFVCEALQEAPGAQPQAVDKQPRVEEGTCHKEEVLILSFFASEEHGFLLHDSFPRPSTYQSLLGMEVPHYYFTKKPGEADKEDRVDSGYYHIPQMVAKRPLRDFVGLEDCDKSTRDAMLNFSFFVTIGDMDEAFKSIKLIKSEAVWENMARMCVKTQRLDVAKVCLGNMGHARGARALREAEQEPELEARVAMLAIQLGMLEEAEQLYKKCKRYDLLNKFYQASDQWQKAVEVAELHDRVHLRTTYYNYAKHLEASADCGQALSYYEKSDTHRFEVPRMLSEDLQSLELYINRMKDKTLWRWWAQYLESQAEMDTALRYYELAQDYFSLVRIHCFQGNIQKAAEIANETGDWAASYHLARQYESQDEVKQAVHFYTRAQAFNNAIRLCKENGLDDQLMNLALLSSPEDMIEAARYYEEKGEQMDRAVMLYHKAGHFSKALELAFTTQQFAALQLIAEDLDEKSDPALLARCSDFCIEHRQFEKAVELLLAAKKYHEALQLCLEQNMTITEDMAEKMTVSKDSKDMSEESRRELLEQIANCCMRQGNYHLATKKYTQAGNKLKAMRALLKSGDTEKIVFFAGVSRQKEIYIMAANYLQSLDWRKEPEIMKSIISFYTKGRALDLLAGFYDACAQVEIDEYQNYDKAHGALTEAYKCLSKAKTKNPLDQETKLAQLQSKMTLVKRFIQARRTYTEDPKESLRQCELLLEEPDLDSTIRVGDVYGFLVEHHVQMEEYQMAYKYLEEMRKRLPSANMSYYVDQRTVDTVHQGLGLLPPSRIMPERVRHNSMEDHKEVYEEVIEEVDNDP

Columns and labels:
[1] = target: IFT140 (mouse (endogenous in E11.5 embryos)) (UniProt E9PY46); assay: affinity purification with mass spectrometry; endogenous IFT88 or IFT140 immunoprecipitated (3 ug antibody, 500 ug protein, overnight 4 C, Protein G magnetic beads) from E11.5 Wdr35+/+ and Wdr35-/- mouse embryo lysates; IP lysis buffer 50 mM Tris-HCl pH 7.5, 100 mM NaCl, 10% glycerol, 0.5 mM EDTA, 0.5% IGEPAL; GFP antibody IP as control; label-free quantification
[2] = target: T1, IFT88 (mouse (endogenous in E11.5 embryos)) (UniProt Q61371); assay: as above
T1 sequence: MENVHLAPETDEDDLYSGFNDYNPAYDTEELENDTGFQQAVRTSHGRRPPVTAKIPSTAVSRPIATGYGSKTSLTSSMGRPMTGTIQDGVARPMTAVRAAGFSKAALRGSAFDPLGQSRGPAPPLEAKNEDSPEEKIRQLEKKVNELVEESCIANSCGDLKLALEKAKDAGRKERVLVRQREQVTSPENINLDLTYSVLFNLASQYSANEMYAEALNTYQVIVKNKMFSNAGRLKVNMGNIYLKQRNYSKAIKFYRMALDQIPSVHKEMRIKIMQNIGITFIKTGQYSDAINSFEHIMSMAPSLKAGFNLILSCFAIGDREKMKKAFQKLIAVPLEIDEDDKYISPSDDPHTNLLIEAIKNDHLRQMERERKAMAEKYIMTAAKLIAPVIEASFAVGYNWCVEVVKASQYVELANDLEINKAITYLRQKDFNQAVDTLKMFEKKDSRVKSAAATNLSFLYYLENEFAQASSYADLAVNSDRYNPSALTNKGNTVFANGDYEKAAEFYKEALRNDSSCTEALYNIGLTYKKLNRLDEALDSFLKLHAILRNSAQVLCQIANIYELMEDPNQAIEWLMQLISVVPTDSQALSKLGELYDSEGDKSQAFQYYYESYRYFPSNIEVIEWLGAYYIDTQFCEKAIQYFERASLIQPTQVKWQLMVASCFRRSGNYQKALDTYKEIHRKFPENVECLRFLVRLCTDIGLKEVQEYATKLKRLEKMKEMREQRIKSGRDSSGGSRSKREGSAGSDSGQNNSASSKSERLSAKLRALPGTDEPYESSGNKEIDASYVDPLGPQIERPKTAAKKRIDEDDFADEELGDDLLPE

B1: IFT43 (protein, UniProt Q9DA69 1-206)
chain: MDDLLDLGEERRRSSATSGAKMGRRAHQESTQAENYLNSKNSSLTQTGEAPPPKPPRRQGGWADDSMKMAKLGKKVSEEMEDHRLRQQNLMGSDDDDIPVIPDLEDVQEEDFVLQVASPPSIQVNRVMTYRDLDNDLMKYSAFQTLDGEIDLKLLTKVLAPEHEVREDDVGWDWDHLYTEVSSELLTEWDLLRAEKEDPVGPSRYI
binding [1]: binds

B4: IFT22/RABL5 (protein, UniProt Q9DAI2 1-185)
chain: MLKAKILFVGPCESGKTVLANFLTESSDITEYNPTQGVRILEFENPHVTSNNKGTGCEFELWDCGGDSKFESCWPALMKDAHGVVIVFNADIPSHLKEIEMWYSCFVQQQFLQDSHCMLVAHHKPGSGGERGSLALSPPLNKLKLVHSNLEEDPEEVRVEFIKYLKSIINSMSESRDREEMLIIT
binding [2]: binds

B5: IFT139/TTC21B/THM1 (protein, UniProt Q0HA38 1-1315)
chain: MDSQGLKTLINYYCQERYYHHVLLVASEGMKKYSSDPVFRFYHAYGTLMEGKAQEALREFEAIKNKQDVSLCSLMALMYVHKMSPNPDREAILELDTKMKEQRKEAGRKALYHAGLFLWHIGRHDKAREYIDRMSKMPHDSNEGPILKAWLDITRGKEPYAKKALRYFEEGLQDGNDIFALLGKVLCLEIRQNYSGALETVSQIIVNFPSFLPAFEKKMKLQLALQDWDQTVETAQRLLLQDNHNVEALRMLALYYLCREGDVEKAATKLENLGNALDVMEPQNAQLFYKITLAFSRTCGRNQLILQKVQSFLEKAFSLTPQQAEIATELGYQMILQGKVKEAWKWYRTAMTLNESNISAVTGLIRCQLIEGQLQDADQQLEFFSEFQQSMGKSAELMYLHAVLATKKNNRQDEVINLLNDVVNTHFSHLEDLPLGIQYFEKLNPDFLLEVVTEYLNLCPIQPAGPGQPLSPVLRRCSSVLETIIRSVPGLPQAVFLMAKVKYLSGDTEAAYNNLQHCLEHSPSYAEAHLLMAQVYLSQDKVKLCSQSLELCLSYNFNVREYPLYHLIKAQSQKKMGEVAEAIKTLHMAMNLPGMRRSRASSKSKHRTEVDASHRLSIFLELVEVHRLNGEQHEAAKVLQDAIHEFSGTCEELRVTIANADLALAQGDTDRALSMLRNVTTEQPYFIEAKEKMADIYLKHRKEKMLYITCYREIAERMPSPRSFLLLGDAYMNIQEPEEAIVAYEQALNQNPKDGTLARKIGKALVKTHNYSKAITYYEAALKSGQQNCLCYDLAELLLRLKLYEKAEKVLQHSLAHEPVSELSALMVDGRSQVLLAKVYSKMERPSDAIAALQQARELQARILKRVQMEQPDAVPSQKHFAAEICAEIAKHSAAQRDYEKAITFYREALVHCETDSKIMLELAQLYLAQEDLDASLRHCALLLQRDQDNEPATMLMADLMFRKQDYEQAVYHLQQLLDRKPDNFMTLSRLIDLLRRCGKLEDVPRFFLMAEKHNSRTKLEPGFQYCKGLHFWYTGEPNDALRHFNKARKDSDWGQNALYNMIEICLNPDNETIGGEVFENLNGDLGTSPEKQESVQLAVRTAEKLLKELKPQTVQGRLQLRIMENCCLMATKQKSSVEQALNTFTEIAASEKDHIPALLGMATAYMILKQTPKARNQLKRIAKMPWNPIEAEDLEKSWLLLADIYIQSAKYDMAEELLKRCLCHNRSCCKAYEYMGYIMEKEQAYTDAAFNYEMAWKHSNQTNPAVGYKLAFNYLKAKRYVDAIDVCHQVLEAHPTYPKIRKDILDKARASLRP
binding [1]: binds

Results, then the binder that gave them:

binding [1]: binds
B2: IFT144/WDR19 (protein, UniProt Q3UGF1 1-1341)
chain: MKRVFSLLEKSWLGAPIQFAWQKSSGNYLAVTGADYIVKIFDRHGQKRSEISLPGNCVTMDWDKDGDILAVIAEKSSCIYLWDANTNKTSQLDNGMRDQMSFLLWSKIGSFLAVGTIKGNLLIYNHQTSRKIPVLGKHTKKITCGCWNSENLLALGGEDKMITVSNQEGDTIRQTPVKSEPSDIKFSMSKTDERISSAENTISAVVGKKMLFLFHLNEPDNPVDLEFQQAYGNIVCYSWYGDGYIMIGFSRGTFLAISTHFPEVGQEIFKARDHKDNLTSVALSQTLNKAATCGDNCIKIHDLTELRDMYAIINLDDENKGLGTLSWTDDGQLLALSTQRGSLHVFLTKLPILGDACHTRIAYLTSLLEVTVANLIEGEPPITVSVDVEPTFVAVGLYHLAVGMNNRAWFYVLGENVVKKLKDVEYLGTVASICLHSDYAAALFEGKIQLHLIENEMLDAQEERETRLFPAVDDKCRILCHALTSDFLIYGTDTGIIHYFFIEDWQFVNDYRHPVGVKKLFPDPNGTRLVFIDEKSDGFVYCPVNDATYEIPDFSPTIKGVLWENWPMDKGVFIAYDDDKVYTYAFHKDTIQGSKVILAGSTKLPFSHKPLLLYNGELTCQTQSGKINSIYLSTHSFLGSMKDTEPTDLRQMLTQTLLLKRFSDAWDICKMLNDRTSWSELAKACLHHMEVEFAIRVSRTMGDVGTVMSLEQIKGIEDYNLLAGHLAMFTNDFNLAQDLYLASNCPVAALEMRRDLQHWDSALQLAKRLAPDQIPFISKEYAIQLEFTGDYVNALAHYEKGITGDNKEHDEVCLAGVAQMSIRMGDIRRGANQALKHPSRVLKRDCGAILENMKQFSEAAQLYEKGQYYDRAASVYIRCKNWAKVGELLPHVSSPKIHLQYAKAKEADGRYKEAVVAYENAKQWNSVIRIYLDHLNNPEKAVSIVRETQSLDGAKMVARFFLQLGDYGSAIQFLVLSKCNNEAFTLAQQHNKMEIYADIIGAEDTTNEDYQSIALYFEGEKRHFQAGKFFLLCGQYSRALKHFLKCPSSEDNVAIEMAIETVGQAKDELLTNQLIDHLMGESDGMPKDAKYLFRLYMALKQYREAARTAIIIAREEQSAGNYRNAHDVLFSMYAELKAQKIKIPSEMATNLMILHSYILVKIHVKSGDHMKGARMLIRVANNISKFPSHIVPILTSTVIECHRAGLKNSAFSFAAMLMRPEYRNKIDAKYKKKIEAMVRRPDTSETEEATTPCPFCQFLLPECELLCPGCKNNIPYCIATGRHMLKDDWTMCPHCGFPALYSEFKILLNSESTCPMCSERLNSSQLKKITDCSQYLRTEME

binding [1]: binds
B3: WDR35/IFT121 (protein, UniProt Q8BND3 1-1181)
chain: MFFYLSKKIAVPNNVKLKCISWNKDQGFIACGGEDGLLKVLRLETQTDDSKLRGLAAPSNLSMNQNLEGHSGAVQVVTWNEQYQKLTTSDQNGLIIVWMLYKGSWYEEMINNRNKSVVRSMSWNADGQKICIVYEDGAVIVGSVDGNRIWGKDLKGIQLCHVTWSADSKILLFGMANGEIHIYDNQGNFIMKMKLNCLVNVTGAISIAGIHWYHGTEGYVEPDCPCLAICFDNGRCQIMRHENDQNPVLIDTGMYVVGIQWNHIGSVLAVAGSQKVVTQDKDINIVQFYTPFGEHLGTLKVPGKQMCSLSWEGGGLKIALAVDSFIYFANIRPDYKWGYCSNTVVYAYTRPDRPEYCVVFWDTKNSEKYVKYVKSLISITTCGDFCILATKADENHPQEENEMETFGATFVLVLCNSIGTPLDPKYIDLVPLFVAMTKTHVIAASKEAFYTWQYRVAKKLTALEINQITRSRKEGRERIYHVDDVPSGSVDGVFDYSKAIQGTRDPICAITASDKTLIVGRESGVIQRYSFPNVALIQKYSLDCRACQLSLNCNSSRLAIIDIAGVLTFFDLDTRVTDSTGQQVVGELLKLERKDVWDMKWAKDNPDLFAMMEKTRMYVFRNLDPEEPIQTSGYICNFEDLEIKSVLLDEILKDPEHPSKDYIMNFEIRSLRDSRALIEKVGIEDASQFIEDNPHPRLWRLLAEAALQKLDLYTAQQAFVRCKDYQGIKFVKLLGNLQSESMKQAEVIAYFGRFEDAERMYQDMDRRDLAIGLRMKLGDWFRVLQLLKTGSGDADDSLLEQANNAIGEYFADRQKWQNAVQYYVKGRNQERLAECYYMLEDYEGLETLANSLPENHKLLPEIAQMFVRVGMCEQAVSAFLKCNQPKAAVDTCVHLNQWNKAVELAKSHSMKEIGSLLARYASHLLEKNKTLDAIELYRKASYFFDAAKLMYKIADEEAKKRTKPLRVKKLYVLSALLIEQYHEQMKNAQRGKVKGKNSEATSALAGLLEEEVLSTTSRFTDNAWRGAEAYHFFILAQRQLYEGYVDTALKTALHLRDYEDIIPSVEIYSLLALCACASRAFGTCSKAFIKLESLETLSAEQKQQYEDLALEIFTKHTPKDNRKSELNSLLEGGEGKLPTCIATGSPIIEYQFWVCKVCKHYVLAQEISNYNFCPLCHSSVE
